Measurements taken from article doi:10.1101/2025.02.07.636106.
These are yes or no findings as the source states them, for the method shown. For some of these results: Binding seen in cells or lysates may run through a third protein. Some entries that bind do so weakly or less than the wild type.

Sequences of proteins named here, by UniProt entry; tags and fusion partners are left off.
UniProt O43747: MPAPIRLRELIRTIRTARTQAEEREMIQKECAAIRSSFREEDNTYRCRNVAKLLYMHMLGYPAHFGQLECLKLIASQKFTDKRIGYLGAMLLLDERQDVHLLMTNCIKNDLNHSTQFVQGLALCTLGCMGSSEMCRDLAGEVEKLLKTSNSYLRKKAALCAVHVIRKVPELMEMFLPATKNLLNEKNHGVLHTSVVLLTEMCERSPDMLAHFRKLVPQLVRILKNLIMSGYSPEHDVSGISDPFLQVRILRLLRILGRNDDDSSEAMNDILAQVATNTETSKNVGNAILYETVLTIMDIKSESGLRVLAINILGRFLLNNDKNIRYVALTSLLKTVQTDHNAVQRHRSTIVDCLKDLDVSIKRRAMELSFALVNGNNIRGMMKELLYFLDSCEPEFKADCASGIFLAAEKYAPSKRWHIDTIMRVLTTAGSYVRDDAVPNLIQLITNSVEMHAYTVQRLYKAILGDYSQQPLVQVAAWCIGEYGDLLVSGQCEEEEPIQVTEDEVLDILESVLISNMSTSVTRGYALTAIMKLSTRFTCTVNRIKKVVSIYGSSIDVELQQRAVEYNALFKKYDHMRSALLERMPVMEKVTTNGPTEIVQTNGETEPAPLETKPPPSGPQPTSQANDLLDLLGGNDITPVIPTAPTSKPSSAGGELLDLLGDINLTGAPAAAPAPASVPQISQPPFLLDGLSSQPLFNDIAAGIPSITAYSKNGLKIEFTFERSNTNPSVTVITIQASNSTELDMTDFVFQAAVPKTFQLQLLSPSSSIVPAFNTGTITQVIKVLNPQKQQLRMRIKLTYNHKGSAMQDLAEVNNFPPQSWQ

Assays:
[1] = target: T1, ATP11B (human (endogenous in HEK293 and in H9-derived iNeurons)) (UniProt Q9Y2G3); test: cross-linking; XL-MS: intact early endosomes purified by Endo-IP (FLAG-EEA1, HEK293EL, eluted without detergent) in KPBS, 1 mM DSSO, room temperature, 40 min; XlinkX, 5% FDR
T1 sequence: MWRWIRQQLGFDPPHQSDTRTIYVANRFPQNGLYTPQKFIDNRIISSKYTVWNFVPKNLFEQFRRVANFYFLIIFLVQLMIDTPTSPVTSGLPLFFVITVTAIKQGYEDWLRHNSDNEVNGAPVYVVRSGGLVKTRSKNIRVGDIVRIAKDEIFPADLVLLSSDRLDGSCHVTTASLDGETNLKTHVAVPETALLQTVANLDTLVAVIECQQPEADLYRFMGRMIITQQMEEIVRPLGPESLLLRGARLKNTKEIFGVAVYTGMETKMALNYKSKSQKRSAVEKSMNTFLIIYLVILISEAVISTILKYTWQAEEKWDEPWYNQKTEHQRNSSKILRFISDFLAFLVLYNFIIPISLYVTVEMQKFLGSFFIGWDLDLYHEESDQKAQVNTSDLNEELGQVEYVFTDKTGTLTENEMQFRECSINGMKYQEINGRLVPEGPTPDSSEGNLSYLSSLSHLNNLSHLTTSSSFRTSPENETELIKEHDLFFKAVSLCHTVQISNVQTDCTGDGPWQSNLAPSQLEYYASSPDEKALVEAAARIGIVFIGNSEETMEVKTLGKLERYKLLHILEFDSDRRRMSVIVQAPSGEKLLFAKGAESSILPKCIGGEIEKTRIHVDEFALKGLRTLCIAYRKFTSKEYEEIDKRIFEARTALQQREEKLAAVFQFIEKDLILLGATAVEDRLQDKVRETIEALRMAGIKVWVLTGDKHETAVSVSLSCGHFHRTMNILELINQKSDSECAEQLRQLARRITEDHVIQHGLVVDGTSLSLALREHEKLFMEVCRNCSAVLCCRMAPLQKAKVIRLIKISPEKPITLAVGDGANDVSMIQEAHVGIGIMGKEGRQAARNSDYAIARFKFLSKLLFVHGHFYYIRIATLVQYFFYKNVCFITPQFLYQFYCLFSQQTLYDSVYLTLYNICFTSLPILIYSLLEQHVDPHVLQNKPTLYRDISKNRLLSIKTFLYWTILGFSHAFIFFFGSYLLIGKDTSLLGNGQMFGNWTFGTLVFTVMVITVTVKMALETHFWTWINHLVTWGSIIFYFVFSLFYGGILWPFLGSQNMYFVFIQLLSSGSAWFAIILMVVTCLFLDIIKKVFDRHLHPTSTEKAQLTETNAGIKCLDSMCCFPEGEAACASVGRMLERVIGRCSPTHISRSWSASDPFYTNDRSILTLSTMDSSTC

[2] = target: T1, ATP11B (human (endogenous in HEK293 and in H9-derived iNeurons)); test: native gel or EMSA; BN-MS: endosomal pellets (Endo-IP, HEK293EL) extracted with 0.5% DDM in KPBS, 4-16% NativePAGE at 4°C, 48 slices, DIA-MS; co-migration of elution profiles
[3] = target: T2, TMEM30A (human (endogenous in HEK293 and in H9-derived iNeurons)) (UniProt Q9NV96); test: as above
T2 sequence: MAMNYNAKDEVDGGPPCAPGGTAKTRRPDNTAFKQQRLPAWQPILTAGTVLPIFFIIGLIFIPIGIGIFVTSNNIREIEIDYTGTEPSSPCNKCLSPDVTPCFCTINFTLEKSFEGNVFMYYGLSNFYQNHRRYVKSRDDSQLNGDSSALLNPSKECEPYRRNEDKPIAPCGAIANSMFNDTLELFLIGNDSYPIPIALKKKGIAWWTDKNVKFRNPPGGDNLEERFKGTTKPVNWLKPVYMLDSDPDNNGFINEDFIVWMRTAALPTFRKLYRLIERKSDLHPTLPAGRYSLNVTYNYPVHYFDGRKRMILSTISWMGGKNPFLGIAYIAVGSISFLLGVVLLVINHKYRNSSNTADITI

[4] = target: T3, CLCN7 (human (endogenous in HEK293)) (UniProt P51798); test: cross-linking; XL-MS: intact early endosomes purified by Endo-IP (FLAG-EEA1, HEK293EL, eluted without detergent) in KPBS, 1 mM DSSO, room temperature, 40 min; XlinkX, 5% FDR
T3 sequence: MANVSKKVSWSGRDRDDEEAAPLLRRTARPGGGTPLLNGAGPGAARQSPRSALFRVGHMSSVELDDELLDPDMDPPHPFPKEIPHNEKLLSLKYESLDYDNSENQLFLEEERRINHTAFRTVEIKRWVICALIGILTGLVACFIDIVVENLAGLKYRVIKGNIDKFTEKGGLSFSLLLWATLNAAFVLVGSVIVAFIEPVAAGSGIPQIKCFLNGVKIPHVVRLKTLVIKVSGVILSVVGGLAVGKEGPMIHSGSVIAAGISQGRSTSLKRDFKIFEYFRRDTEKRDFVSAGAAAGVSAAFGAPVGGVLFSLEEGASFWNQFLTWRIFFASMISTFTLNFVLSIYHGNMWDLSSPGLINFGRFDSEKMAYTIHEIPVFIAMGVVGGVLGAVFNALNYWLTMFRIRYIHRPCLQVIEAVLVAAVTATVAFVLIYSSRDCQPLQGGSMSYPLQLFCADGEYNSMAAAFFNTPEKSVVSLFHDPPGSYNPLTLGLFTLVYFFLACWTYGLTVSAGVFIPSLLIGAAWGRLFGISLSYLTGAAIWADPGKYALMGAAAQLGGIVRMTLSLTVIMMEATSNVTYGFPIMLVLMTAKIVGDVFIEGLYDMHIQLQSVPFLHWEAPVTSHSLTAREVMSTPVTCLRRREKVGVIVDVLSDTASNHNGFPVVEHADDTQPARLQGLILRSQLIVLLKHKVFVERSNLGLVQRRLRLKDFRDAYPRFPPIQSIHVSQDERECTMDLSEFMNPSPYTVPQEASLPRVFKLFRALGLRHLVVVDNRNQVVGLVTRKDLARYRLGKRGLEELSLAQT

[5] = target: T4, RMC1 (human (endogenous in HEK293)) (UniProt Q96DM3); test: as above
T4 sequence: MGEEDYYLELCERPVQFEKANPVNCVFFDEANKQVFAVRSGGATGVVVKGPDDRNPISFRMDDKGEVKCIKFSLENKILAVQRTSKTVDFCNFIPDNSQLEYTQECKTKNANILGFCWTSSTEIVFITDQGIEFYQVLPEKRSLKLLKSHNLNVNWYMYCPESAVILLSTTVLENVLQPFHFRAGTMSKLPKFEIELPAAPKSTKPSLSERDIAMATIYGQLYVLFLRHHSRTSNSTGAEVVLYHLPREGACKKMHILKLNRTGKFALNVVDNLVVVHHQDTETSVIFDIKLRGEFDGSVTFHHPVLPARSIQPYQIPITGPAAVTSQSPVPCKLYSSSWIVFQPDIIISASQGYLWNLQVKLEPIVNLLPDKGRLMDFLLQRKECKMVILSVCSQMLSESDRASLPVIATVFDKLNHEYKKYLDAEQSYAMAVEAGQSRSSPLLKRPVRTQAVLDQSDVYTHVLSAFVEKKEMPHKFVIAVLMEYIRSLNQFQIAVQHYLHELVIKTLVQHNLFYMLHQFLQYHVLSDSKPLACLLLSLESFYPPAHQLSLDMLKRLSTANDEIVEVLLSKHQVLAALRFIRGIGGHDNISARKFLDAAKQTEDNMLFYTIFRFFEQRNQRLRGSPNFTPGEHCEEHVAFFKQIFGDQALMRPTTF

[6] = target: AP1G1 (human (endogenous in HEK293)) (UniProt O43747); test: as above
[7] = target: T5, FLOT2 (human (endogenous in HEK293)) (UniProt Q14254); test: as above
T5 sequence: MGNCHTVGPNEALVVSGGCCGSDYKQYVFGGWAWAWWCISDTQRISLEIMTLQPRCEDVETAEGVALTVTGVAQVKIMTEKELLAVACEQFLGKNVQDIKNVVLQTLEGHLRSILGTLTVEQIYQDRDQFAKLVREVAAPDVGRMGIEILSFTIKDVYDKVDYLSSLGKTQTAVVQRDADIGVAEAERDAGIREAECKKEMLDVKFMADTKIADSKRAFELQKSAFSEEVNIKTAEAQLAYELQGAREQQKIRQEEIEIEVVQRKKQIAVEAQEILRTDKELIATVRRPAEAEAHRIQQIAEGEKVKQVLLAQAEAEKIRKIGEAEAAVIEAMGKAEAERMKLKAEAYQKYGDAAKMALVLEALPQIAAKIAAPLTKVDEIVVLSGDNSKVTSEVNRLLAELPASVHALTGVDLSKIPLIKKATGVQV

B1: TMEM230 (protein, UniProt Q96A57 1-120)
chain: MMPSRTNLATGIPSSKVKYSRLSSTDDGYIDLQFKKTPPKIPYKAIALATVLFLIGAFLIIIGSLLLSGYISKGGADRAVPVLIIGILVFLPGFYHLRIAYYASKGYRGYSYDDIPDFDD
For B1, the binding [1] was “binds”, the binding [2] was “binds” and the binding [3] was “binds”.

B2: OSTM1 (protein, UniProt Q86WC4 32-334)
chain: ALPFGSSPHRVFHDLLSEQQLLEVEDLSLSLLQGGGLGPLSLPPDLPDLDPECRELLLDFANSSAELTGCLVRSARPVRLCQTCYPLFQQVVSKMDNISRAAGNTSESQSCARSLLMADRMQIVVILSEFFNTTWQEANCANCLTNNSEELSNSTVYFLNLFNHTLTCFEHNLQGNAHSLLQTKNYSEVCKNCREAYKTLSSLYSEMQKMNELENKAEPGTHLCIDVEDAMNITRKLWSRTFNCSVPCSDTVPVIAVSVFILFLPVVFYLSSFLHSEQKKRKLILPKRLKSSTSFANIQENSN
B2 was tested, and the binding [4] was “binds”.

B3: CLCN7 (protein, UniProt P51798 1-805)
chain: T3 sequence
For B3, the binding [5] was “binds”.

B4: AP1S2 (protein, UniProt P56377 1-157)
chain: MQFMLLFSRQGKLRLQKWYVPLSDKEKKKITRELVQTVLARKPKMCSFLEWRDLKIVYKRYASLYFCCAIEDQDNELITLEIIHRYVELLDKYFGSVCELDIIFNFEKAYFILDEFLLGGEVQETSKKNVLKAIEQADLLQEEAETPRSVLEEIGLT
B4 was tested, and the binding [6] was “binds”.

B5: FLOT1 (protein, UniProt O75955 1-427)
chain: MFFTCGPNEAMVVSGFCRSPPVMVAGGRVFVLPCIQQIQRISLNTLTLNVKSEKVYTRHGVPISVTGIAQVKIQGQNKEMLAAACQMFLGKTEAEIAHIALETLEGHQRAIMAHMTVEEIYKDRQKFSEQVFKVASSDLVNMGISVVSYTLKDIHDDQDYLHSLGKARTAQVQKDARIGEAEAKRDAGIREAKAKQEKVSAQYLSEIEMAKAQRDYELKKAAYDIEVNTRRAQADLAYQLQVAKTKQQIEEQRVQVQVVERAQQVAVQEQEIARREKELEARVRKPAEAERYKLERLAEAEKSQLIMQAEAEAASVRMRGEAEAFAIGARARAEAEQMAKKAEAFQLYQEAAQLDMLLEKLPQVAEEISGPLTSANKITLVSSGSGTMGAAKVTGEVLDILTRLPESVERLTGVSISQVNHKPLRTA
B5 was tested, and the binding [7] was “binds”.
